The source of these data is article PMC5579925.

Sequences of proteins named here, by UniProt entry; tags and fusion partners are left off.
UniProt Q00987: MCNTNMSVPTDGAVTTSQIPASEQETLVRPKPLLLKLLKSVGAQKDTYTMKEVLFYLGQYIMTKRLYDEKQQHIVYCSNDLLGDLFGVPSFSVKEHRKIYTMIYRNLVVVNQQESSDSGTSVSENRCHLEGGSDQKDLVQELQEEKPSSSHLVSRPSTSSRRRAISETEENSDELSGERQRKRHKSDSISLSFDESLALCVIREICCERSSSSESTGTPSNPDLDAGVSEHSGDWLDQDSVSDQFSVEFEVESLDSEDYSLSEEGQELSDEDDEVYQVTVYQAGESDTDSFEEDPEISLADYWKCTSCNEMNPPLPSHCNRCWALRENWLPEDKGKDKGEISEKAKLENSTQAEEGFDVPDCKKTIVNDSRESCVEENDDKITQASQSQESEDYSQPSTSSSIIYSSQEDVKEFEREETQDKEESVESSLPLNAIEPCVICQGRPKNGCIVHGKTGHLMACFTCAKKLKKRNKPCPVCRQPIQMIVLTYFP

This assay concerns the target T1, N-acetyltransferase 10 (NAT10) (human (endogenous in Huh7)) (UniProt Q9H0A0).
T1 sequence: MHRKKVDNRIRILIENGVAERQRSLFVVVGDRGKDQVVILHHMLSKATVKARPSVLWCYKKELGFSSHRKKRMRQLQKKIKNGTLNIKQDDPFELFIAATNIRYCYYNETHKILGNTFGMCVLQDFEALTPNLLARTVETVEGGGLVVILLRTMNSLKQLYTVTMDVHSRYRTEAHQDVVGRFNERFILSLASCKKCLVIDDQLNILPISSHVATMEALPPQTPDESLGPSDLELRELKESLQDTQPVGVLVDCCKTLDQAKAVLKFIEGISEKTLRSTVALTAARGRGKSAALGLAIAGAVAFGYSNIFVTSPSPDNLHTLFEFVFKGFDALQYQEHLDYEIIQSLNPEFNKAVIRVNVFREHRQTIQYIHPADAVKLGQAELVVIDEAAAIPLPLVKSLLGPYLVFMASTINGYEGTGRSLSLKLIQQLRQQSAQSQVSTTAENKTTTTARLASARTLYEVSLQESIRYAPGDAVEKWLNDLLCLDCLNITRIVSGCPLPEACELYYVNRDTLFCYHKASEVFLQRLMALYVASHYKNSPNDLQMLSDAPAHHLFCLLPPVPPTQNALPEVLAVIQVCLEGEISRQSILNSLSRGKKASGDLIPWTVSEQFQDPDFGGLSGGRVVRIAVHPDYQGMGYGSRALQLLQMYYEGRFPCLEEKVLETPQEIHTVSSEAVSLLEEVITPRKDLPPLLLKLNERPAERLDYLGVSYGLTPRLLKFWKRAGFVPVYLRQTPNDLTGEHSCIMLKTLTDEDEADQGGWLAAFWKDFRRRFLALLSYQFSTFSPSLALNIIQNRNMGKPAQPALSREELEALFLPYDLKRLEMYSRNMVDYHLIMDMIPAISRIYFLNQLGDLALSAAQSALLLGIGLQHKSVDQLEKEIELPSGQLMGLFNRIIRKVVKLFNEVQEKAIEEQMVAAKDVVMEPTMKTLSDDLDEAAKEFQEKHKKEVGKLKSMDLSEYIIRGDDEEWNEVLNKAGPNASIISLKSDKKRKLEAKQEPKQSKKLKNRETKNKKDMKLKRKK
In words: co-IP; Huh7 cell lysates (lysis buffer A: 25 mM Tris-HCl pH 7.5, 100 mM KCl, 1 mM DTT, 2 mM EDTA, 0.1% Nonidet P-40) immunoprecipitated with control IgG or anti-NAT10 antibodies on protein A and G beads, 2 h at 4 °C; precipitates immunoblotted. (In general: In western blotting, separated proteins are transferred to a membrane and probed.)

No constants are given. Whether binding was seen depends on the method and setting. Binding seen in cells or lysates may run through a third protein. Some results given as binding are weak or reduced against the parent protein; the word gives no strength.

On to “Mdm2 (Murine double minute2) (from UniProt Q00987 1-491)”, for which the binding result was “binds”.
